The record followed here is article PMC13436964.

By UniProt entry, the sequences of proteins in these tests, tags left out.
UniProt Q9Y265: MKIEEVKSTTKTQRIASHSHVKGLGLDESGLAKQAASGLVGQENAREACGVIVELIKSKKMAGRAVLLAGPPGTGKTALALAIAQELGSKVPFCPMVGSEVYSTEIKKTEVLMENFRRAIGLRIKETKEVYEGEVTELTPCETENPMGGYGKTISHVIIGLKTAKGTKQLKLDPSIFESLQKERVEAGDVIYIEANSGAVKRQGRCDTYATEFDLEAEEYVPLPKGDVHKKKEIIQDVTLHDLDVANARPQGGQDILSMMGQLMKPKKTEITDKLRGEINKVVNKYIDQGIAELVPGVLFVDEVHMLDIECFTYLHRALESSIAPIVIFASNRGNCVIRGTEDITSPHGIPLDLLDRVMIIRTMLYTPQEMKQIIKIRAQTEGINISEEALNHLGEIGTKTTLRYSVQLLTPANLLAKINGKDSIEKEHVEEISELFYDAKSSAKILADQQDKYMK

In this assay the target is T1, LMOD1-BirA*-FLAG (not stated (gene written Lmod1 as for mouse; key resources table lists the construct under 'Homo sapiens')) (UniProt Q8BVA4).
T1 sequence: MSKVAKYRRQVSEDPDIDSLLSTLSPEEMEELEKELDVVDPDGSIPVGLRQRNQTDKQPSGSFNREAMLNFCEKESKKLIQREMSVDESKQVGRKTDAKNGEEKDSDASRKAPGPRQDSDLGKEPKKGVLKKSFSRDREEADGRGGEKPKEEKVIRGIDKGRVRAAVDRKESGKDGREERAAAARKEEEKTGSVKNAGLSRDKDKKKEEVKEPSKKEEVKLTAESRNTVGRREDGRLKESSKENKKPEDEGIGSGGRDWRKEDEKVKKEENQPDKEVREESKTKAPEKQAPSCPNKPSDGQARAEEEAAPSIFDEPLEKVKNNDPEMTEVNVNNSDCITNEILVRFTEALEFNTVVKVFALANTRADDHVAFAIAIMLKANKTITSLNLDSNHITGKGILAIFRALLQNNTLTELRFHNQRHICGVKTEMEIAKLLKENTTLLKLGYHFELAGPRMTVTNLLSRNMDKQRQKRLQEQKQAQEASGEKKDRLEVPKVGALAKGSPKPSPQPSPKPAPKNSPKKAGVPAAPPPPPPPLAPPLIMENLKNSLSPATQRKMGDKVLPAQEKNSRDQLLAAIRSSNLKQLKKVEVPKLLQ
The experiment in a line: proximity labelling; BioID in stable HEK293T Flp-In T-REx cells; BirA* fusion induced with 1 ug/mL tetracycline for 4 days, 50 uM biotin for 24 hr; streptavidin enrichment and DIA mass spectrometry; compared with BirA*-Ctrl and LMOD1-BirA* vs LMOD2-BirA*; n=4.

Results are given in words; binding and its absence hold for the method and conditions named. Binding seen in cells or lysates may run through a third protein. Here binding means that the protein was enriched with, or labelled near, the bait; the list need not be complete. Where a sequence is shown, tags or fusion partners need not be part of it.

“RuvB Like AAA ATPase 1 (RUVBL1), endogenous in HEK293T (from UniProt Q9Y265 1-456)”: the binding entry is listed as “binds”.

B1: sirtuin 2 (SIRT2), endogenous in HEK293T (protein, UniProt Q8IXJ6 1-389)
chain: MAEPDPSHPLETQAGKVQEAQDSDSDSEGGAAGGEADMDFLRNLFSQTLSLGSQKERLLDELTLEGVARYMQSERCRRVICLVGAGISTSAGIPDFRSPSTGLYDNLEKYHLPYPEAIFEISYFKKHPEPFFALAKELYPGQFKPTICHYFMRLLKDKGLLLRCYTQNIDTLERIAGLEQEDLVEAHGTFYTSHCVSASCRHEYPLSWMKEKIFSEVTPKCEDCQSLVKPDIVFFGESLPARFFSCMQSDFLKVDLLLVMGTSLQVQPFASLISKAPLSTPRLLINKEKAGQSDPFLGMIMGLGGGMDFDSKKAYRDVAWLGECDQGCLALAELLGWKKELEDLVRREHASIDAQSGAGVPNPSTSASPKKSPPPAKDEARTTEREKPQ
As for B1, the binding result was “binds”.
